According to paper PMC2920845:
Results are given in words; binding and its absence hold for the method and conditions named. Binding seen in cells or lysates may run through a third protein. Some entries that bind do so weakly or less than the wild type.

Amino acid sequences for entries named in this document (tags omitted). Residues count along the entry.
UniProt P9WHT9, residues 58-291: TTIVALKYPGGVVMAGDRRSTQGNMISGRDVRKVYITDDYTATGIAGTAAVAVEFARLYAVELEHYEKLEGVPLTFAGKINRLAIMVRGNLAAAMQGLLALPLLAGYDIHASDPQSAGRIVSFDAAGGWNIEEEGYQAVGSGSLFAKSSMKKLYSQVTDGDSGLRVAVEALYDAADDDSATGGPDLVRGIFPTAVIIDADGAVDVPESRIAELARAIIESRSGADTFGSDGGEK
UniProt P9WHU1: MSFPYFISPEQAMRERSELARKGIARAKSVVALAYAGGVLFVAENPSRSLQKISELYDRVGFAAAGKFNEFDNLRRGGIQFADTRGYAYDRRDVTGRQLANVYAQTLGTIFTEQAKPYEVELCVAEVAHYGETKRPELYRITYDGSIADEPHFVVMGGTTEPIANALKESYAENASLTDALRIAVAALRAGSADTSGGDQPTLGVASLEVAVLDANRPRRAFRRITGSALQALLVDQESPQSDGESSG

Biological target: PrcBHis6 (wild-type PrcB with a histidine tag) (M. tuberculosis) (UniProt P9WHT9)
Assay: co-IP

PrcA (proteasome core alpha subunit) (from UniProt P9WHU1 1-248)
binding: binds
